Taken from: PubChem BioAssay AID1159584 (Peter MacCallum Cancer Centre, 2016)
In all, the deposit lists about 18,000 reagents; below is an unselected part. Further read-outs or replicates are left out here. Not stated in the record: the amount of reagent, the time to read-out.

Purpose: 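Knock-downs that harm CDH1-null cells more than parental MCF10A cells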 (primary screen)
Cells: human MCF10A breast epithelial cells, parental and CDH1-null
Reagent: siRNA against human genes
Measured: 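Cell viability by CellTiter-Glo ATP luminescence, each line scaled to the mean of mock wells across plates, then CDH1-null over parental ratio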
Reading the numbers: CDH1-null / parental viability ratio: higher = CDH1-null cells survive relatively better than parental

PGAP2
- CDH1-null / parental viability ratio: 1.49

ZNF566
- CDH1-null / parental viability ratio: 1.04

COG6
- CDH1-null / parental viability ratio: 0.75

ACADS
- CDH1-null / parental viability ratio: 0.99

INSL3
- CDH1-null / parental viability ratio: 0.99

PRSS54
- CDH1-null / parental viability ratio: 1.18

CDKL4
- CDH1-null / parental viability ratio: 0.91

PLXDC2
- CDH1-null / parental viability ratio: 1.05

SPRY1
- CDH1-null / parental viability ratio: 0.74

FABP6
- CDH1-null / parental viability ratio: 0.95

OR4K1
- CDH1-null / parental viability ratio: 1.09

Continued; the last 3 above are carried over.
SPRY1
- CDH1-null / parental viability ratio: 0.74

FABP6
- CDH1-null / parental viability ratio: 0.95

OR4K1
- CDH1-null / parental viability ratio: 1.09

IGLL1
- CDH1-null / parental viability ratio: 1.24

CIRBP-AS1
- CDH1-null / parental viability ratio: 1.12

RNF215
- CDH1-null / parental viability ratio: 0.93

NOP16
- CDH1-null / parental viability ratio: 1.06

MOS
- CDH1-null / parental viability ratio: 0.99

TMBIM6
- CDH1-null / parental viability ratio: 1.02

KIZ
- CDH1-null / parental viability ratio: 0.84

SCAP
- CDH1-null / parental viability ratio: 0.96

OSBPL8
- CDH1-null / parental viability ratio: 0.84

CSNK2A1
- CDH1-null / parental viability ratio: 0.59

THPO
- CDH1-null / parental viability ratio: 1.44

ASB16-AS1
- CDH1-null / parental viability ratio: 0.98

MORC2
- CDH1-null / parental viability ratio: 0.88
